Measurements taken from article PMC11049809, “Determinants of mer Promoter Activity from Pseudomonas aeruginosa”.
Construct, isoform or probe ends are uncertain for at least one entry. At least one verdict was read from the data and is not stated in words by the source. Where a protein sequence is shown, tags need not be part of it.

Target: T1, MerR (Tn501) (Pseudomonas aeruginosa (Tn501)) (UniProt P0A183)
T1 sequence (looked up, limits assumed): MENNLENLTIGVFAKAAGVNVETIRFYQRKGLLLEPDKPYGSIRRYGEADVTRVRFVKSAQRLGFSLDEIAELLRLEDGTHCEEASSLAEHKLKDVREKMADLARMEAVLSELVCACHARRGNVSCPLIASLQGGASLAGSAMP
Test: EMSA
Settings: 0-600 nM MerR, 30 nM DNA, no Hg stated; 10 mM Tris-HCl pH 8.0, 50 mM KCl, 5 mM MgCl2, 10% glycerol, 25 C 10 min; 8% native PAGE, 80 V 45 min; recombinant protein

## TTGACTCCGTACATGAGTACGGAAGTAAGGT (double strand) [Pmer WT]
  binding result: binds
